Assay results: paper PMC10163288
This is one part of the list.

B1: il10ra_site1_normal_mot_HHH_b2_07006_000000108_0001_1_19_H_._HHH_b2_03643_0001_0000100004_0000001_0 (protein)
chain: SSSSDEWYELVRRLIEEIVRLIREGNPEEAKRLIEELERLAEERNDFALRFVVRLLEQALKSSSS
B2: il10ra_site1_normal_mot_8756ee2cf497b5429c717dfc0c0bcfd6_0001_000000186_0001_1_13_H_._HHH_b1_03452_af2_0001_0000100005_0000001_0_af2pred_0001 (protein)
chain: SSSSDTQEVLRLLREAAELDHNGNPEEAEEVVERARELAEELNNLVLRAVAEFLEKIIRSSSSSS
B3: il10ra_site1_sap_16_mot_HHH_b1_08282_000000046_0001_43_57_H_._HHH_b1_01753_0001_0000400015_0000001_0_0001 (protein)
chain: DEELVELAQLLLEGDPHATMKLIHLYARIDQGDPEAERKLEEAIELAEELGDEDVVIILEALLEQ
B4: il10ra_site1_normal_mot_HHH_b2_06199_000000213_0001_1_17_H_._HHH_b1_05925_0001_0000300042_0000001_0_af2pred_0001 (protein)
chain: SSSSDEELLRLSLRFAKWLEEQGDPEAARFILEAALEIARDNGDEELVEEIEELLEKLRGSSSSS
B5: il10ra_site1_normal_mot_8756ee2cf497b5429c717dfc0c0bcfd6_0001_000000186_0001_1_13_H_._HHH_b2_06285_af2_0001_0000300019_0000001_0 (protein)
chain: SSSSSLEEEVYRLLREVSELDQEGDEEEAEKLLEEAEELAKEAGNDVFRVQVEYLLRLLKSSSSS
B6: il10ra_site1_normal_mot_HHH_b2_01649_af2_000000191_0001_40_56_H_._HHH_b1_02852_0001_0000100001_0000002_0 (protein)
chain: SSSSSLSEVALRFHARLLEDATKLGNEEEVELIVRHAKEALRALGDPEAVERLEEHFRELLSSSS
B7: il10ra_site1_normal_mot_HHH_b2_00134_af2_000000004_0001_38_52_H_._HHH_b1_06808_0001_0000300021_0000002_0 (protein)
chain: SSSSSSEIEEFVEELVRLFNLSEEQEKLLRKSARRQLEQGASEEDVEEALEFQARALHESSSSSS
B8: il10ra_site1_sap_17_mot_HHH_b1_01563_af2_000000118_0001_40_54_H_._HHH_b1_07652_0001_0000800033_0000001_0_0001 (protein)
chain: SSSSSDVEEEVRELLEEARRLAEEGDPEKAARSLQEAIRLAFRASNPELLRLVWEFLEELSSSSS
B9: il10ra_site1_sap_23_mot_HHH_b2_06480_af2_000000075_0001_1_18_H_._HHH_b1_04601_0001_0000200014_0000001_0_0001 (protein)
chain: SSSSSDVQEVFRLIEEAMELHHDGNPEEAQKVLEEAKEIAEELGNDVLRMVLEYLERKVNSSSSS
B10: il10ra_site1_sap_19_mot_HHH_b2_02337_000000026_0001_38_52_H_._HHH_b2_05811_0001_0000500025_0000001_0_0001 (protein)
chain: SSSSDESEEVLREAEELLEEAHERGDAELLFEIAERAIKRLLELGDPQAALELVRFFAQLSSSSS
B11: il10ra_site1_normal_mot_6792f2186577ebd01aa11eb855ed7b57_0001_af2_000000149_0001_1_16_H_._5947cd9cf3e50e0a76f4b7a97d9f9fb0_0001_1_af2_0001_0000400004_0000002_0 (protein)
chain: SLEEELEELLEELEKISPEARELIKEVKELLKKDESRALYLAARVAALLGDRRVAELLIELFIRL
B12: il10ra_site1_normal_mot_HHH_b1_05254_000000006_0001_1_19_H_._HHH_b1_04999_0001_0000200014_0000001_0 (protein)
chain: SSSSDELYEFAREAIELVIELLREGNPEEARKVVEELERLAEERNNHAVEWTARQLERDINSSSS
B13: il10ra_site1_sap_16_mot_HHH_b1_07962_000000146_0001_41_55_H_._HHH_b2_04286_0001_0000100001_0000001_0_0001_af2pred_0001 (protein)
chain: SSSSSSEEELEELLKELEEAIKRGDEELVEELMARIQILAARLNDPEAFQKALELWLKEFSSSSS
B14: il10ra_site1_sap_18_mot_HHH_b2_03220_af2_000000223_0001_23_40_H_._HHH_b2_00756_af2_0001_0000200006_0000002_0_0001_af2pred_0001 (protein)
chain: SSSSSSDEERERAEELFEQVEEDPRRAERLARELLELALRSRDPEILKLLLELAEELKKSSSSSS
B15: il10ra_site1_normal_mot_HHH_b2_00315_000000062_0001_1_19_H_._HHH_b2_04021_0001_0000200018_0000001_0 (protein)
chain: SSSSSDEEYSEAAKRFLRQLLEQGDEEALEILLHFAKEAAKALNDEELEEEVEEILRKLKSSSSS
B16: il10ra_site1_sap_20_mot_0e2ed5c3f75edde9391a46279eb78c18_0001_000000219_0001_53_65_H_._HHH_b2_05869_0001_0000100006_0000001_0_0001 (protein)
chain: SSSSAEEAYELAEEVVELVHKYQREGDERIRERIEELEELVEELGNRVVLWQIRWMLESLSSSSS
B17: il10ra_site1_normal_mot_HHH_b1_07641_af2_000000285_0001_1_21_H_._HHH_b2_04981_0001_0000400032_0000002_0 (protein)
chain: SSSSTEESEEVMRLLERASELDQEGDKEQAEELVEEAIELAREGGNELLTWQAEFLLRRIRSSSS
B18: il10ra_site1_sap_11_mot_HHH_b1_05329_000000008_0001_43_56_H_._HHH_b2_02124_af2_0002_0000500021_0000001_0_0001 (protein)
chain: SSSSDLEEQIEELREELREALERGDEELALELLQELLRLAFWTSDKELMRELWEAAHKLASSSSS
B19: il10ra_site1_sap_13_mot_HHH_b2_06752_000000207_0001_1_21_H_._HHH_b1_06709_0001_0000100010_0000001_0_0001 (protein)
chain: SSSSSEEFWERVNELLQRAARLYLRGNPEEAEELEEEAERLAKEGNNPEAEESVEHWKKVTSSSS
B20: il10ra_site1_sap_17_mot_HHH_b2_01447_af2_000000258_0001_1_20_H_._HHH_b1_06135_af2_0001_0000100003_0000002_0_0001 (protein)
chain: SSSSSDKEEVEERVEELLEEAEKIEDPEEAMRLLMEAIRLAYRLGDPELLHEIWRVLKEYSSSSS
B21: il10ra_site1_normal_mot_HHH_b1_01821_000000158_0001_23_39_H_._HHH_b1_04578_0001_0000100005_0000001_1 (protein)
chain: SSSSDEFQRLAQEAVRLAIRLSDQETLQRIWELFKRYIEEGDPRLEEELEELLEELEERGSSSSS
B22: il10ra_site1_sap_18_mot_HHH_b2_03328_af2_000000127_0001_1_19_H_._HHH_b1_07680_0001_0000100001_0000001_0_0001 (protein)
chain: SSSSSEEEEEKVEELLERAKRIPDEHEAAQVLFEAMRLAWELNNPELAILVMRVAAEWMQSSSSS
B23: il10ra_site1_normal_mot_HHH_b1_00566_000000151_0001_22_39_H_._ems_3hM_1199_af2_0001_0000200004_0000001_0_1_af2pred_0001 (protein)
chain: SDEETEKIKEEAERRIEEALENNDEETALRVVIEVLRIAYRQNNPDVRRVAEELSRLVAEASLSS
B24: il10ra_site1_normal_mot_HHH_b1_05021_af2_000000076_0001_42_56_H_._HHH_b2_07762_0001_0000100004_0000001_0_af2pred_0001 (protein)
chain: SSSSSSRQELIKRALELLREAVQISDEEEVRELLEEAKELAEEANDVLLRVQIRYLAELNSSSSS
B25: il10ra_site1_normal_mot_0750aae41c39e4229e2ea8fa354cc919_0001_1_000000144_0001_37_51_H_._HHH_b1_03276_0001_0000500031_0000001_0_af2pred_dldesign_0_af2pred (protein)
chain: SSSDPERLFECAKTAIKYLLEAGEPEKAEKTLEYYAKLFEELGYPEYAEELKKYYEELKKELSSS
B26: il10ra_site1_sap_35_mot_HHH_b1_01779_000000096_0001_43_57_H_._ems_3hM_3465_0001_0000100005_0000001_0_0001 (protein)
chain: SSSSDEEEEEELKRVEEELEKLLKEGNPQEAFRLVEEAAELLLEGGDHELMERLLETFIRLSSSS
B27: il10ra_site1_sap_31_mot_HHH_b1_05937_af2_000000262_0001_20_37_H_._HHH_b2_05910_0001_0000300018_0000002_0_0001_af2pred_dldesign_0_af2pred (protein)
chain: SSSSNKEEIEKLIEEIEKLLEAGKPEEALELLRELTRKAIEGKDPEVIAKAVELGKKIEEESSSS
B28: il10ra_site1_normal_mot_8756ee2cf497b5429c717dfc0c0bcfd6_0001_000000186_0001_1_13_H_._HHH_b1_03711_0001_0000100007_0000001_0_af2pred_0001 (protein)
chain: SSSSSDRRELVELVRRVIKLIADGDPEEAEELIKEARELAEELGNEVARVILEFLLEQIRSSSSS
B29: il10ra_site1_normal_mot_HHH_b1_05937_af2_000000262_0001_20_37_H_._HHH_b1_01151_0001_0000100001_0000001_0 (protein)
chain: SSSSSDEVEELLEQAEELAERGNPEEALRVLQEAIRLAFERNDAELVQLIWEVAKEVAELSSSSS
B30: il10ra_site1_sap_21_mot_HHH_b1_03900_000000129_0001_1_16_H_._HHH_b2_02199_af2_0001_0000400039_0000002_0_0001 (protein)
chain: SSSSSSVVEEVAHLSLEAFRLALRGNPEEAREVLEEAEELAREGNDDRILRILEDLLRAQSSSSS
B31: il10ra_site1_normal_mot_HHH_b2_02386_000000054_0001_1_20_H_._HHH_b2_05043_0001_0000100013_0000001_0 (protein)
chain: SSSSSDESYELLRRAIEEVIRLYKEGNPEEAEKVVREVARELEELGNPLAARQLENLLRLLSSSS
B32: il10ra_site1_normal_mot_HHH_b2_01447_af2_000000258_0001_1_20_H_._HHH_b1_07178_af2_0001_0000300016_0000002_0 (protein)
chain: SSSSSTEEVMELIRRASELDQQGNEEEAREVLEEAQKLAEELNNFALRWAIEHLERVLNSSSSSS
B33: il10ra_site1_sap_25_mot_HHH_b2_02053_af2_000000006_0001_3_19_H_._d0e5aa17b8994cf95a3b92f728436530_0001_0001_0000100002_0000001_0_0001 (protein)
chain: SSSSDEDEEEVKELLEEAKELREEGNPEEASKVLQEAVRFAIQSQNPELLHLVWRVVHELGSSSS
B34: il10ra_site1_normal_mot_HHH_b1_01879_000000050_0001_1_18_H_._HHH_b1_04021_0001_0000300018_0000001_0 (protein)
chain: SSSSDELEELLEQLEKAVEEGDEELVIELYVQVARLAQRLNDKEVAEKVFQLLIEFWRRKSSSSS
B35: il10ra_site1_normal_mot_HHH_b1_01087_000000186_0001_1_17_H_._HHH_b1_05594_af2_0001_0000100001_0000001_0 (protein)
chain: SSSSDFERVKELIEEALKLLRNGDPEEAEKVLEEIRELAEKLNNPALRFVLRLLEELLEKLSSSS
B36: il10ra_site1_normal_mot_2c1a291787c6f40772924d4e9068d803_0001_af2_000000187_0001_34_48_H_._HHH_b2_04100_0001_0000200009_0000001_0 (protein)
chain: SSSSNEEERLVFEVAAKAYLLFDKGNEEEAKKVLKELEELAEELNDPAARAYVRALERLLSSSSS
B37: il10ra_site1_normal_mot_8756ee2cf497b5429c717dfc0c0bcfd6_0001_000000186_0001_1_13_H_._HHH_b1_05781_0001_0000300026_0000001_0 (protein)
chain: SSSSDEDAQEVAELLREIVELYNNGNPEEARRLLEEAEEIAEENNNDVLRAQLEYLRRLIDSSSS

Biological target: il10ra, Q13651
Experiment: yeast display titration

Apparent Kd, inactive:
B1 no binding seen
B2 no binding seen
B3 no binding seen
B4 no binding seen
B5 no binding seen
B6 no binding seen
B7 no binding seen
B8 no binding seen
B9 no binding seen
B10 > 72.1 nM
B11 no binding seen
B12 no binding seen
B13 no binding seen
B14 no binding seen
B15 no binding seen
B16 no binding seen
B17 no binding seen
B18 no binding seen
B19 no binding seen
B20 no binding seen
B21 no binding seen
B22 no binding seen
B23 no binding seen
B24 no binding seen
B25 no binding seen
B26 no binding seen
B27 no binding seen
B28 no binding seen
B29 no binding seen
B30 no binding seen
B31 no binding seen
B32 no binding seen
B33 no binding seen
B34 no binding seen
B35 no binding seen
B36 no binding seen
B37 no binding seen

2 entries picked at random from those above, as already listed:
Apparent Kd, inactive:
B33 no binding seen
B35 no binding seen
